Measurements reported in paper PMC12781078.
No constants are given. Whether binding was seen depends on the method and setting. Binding seen in cells or lysates may run through a third protein. Binding can be weak; no strength is given. Tags and fused reporters may be left off the sequences shown.

Molecular target: EGFR-ICD-HA (EGFR intracellular domain)
Assay: co-IP; HEK-293T cells transfected with 3 ug of each plasmid for 48 h; lysates in WB/IP lysis buffer incubated with anti-Flag or anti-HA beads overnight at 4 °C; Western blot

B1: DCBLD1-Flag (discoidin, CUB and LCCL domain containing 1, full length) (protein, UniProt Q8N8Z6 35-715)
chain: EELGDGCGHLVTYQDSGTMTSKNYPGTYPNHTVCEKTITVPKGKRLILRLGDLDIESQTCASDYLLFTSSSDQYGPYCGSMTVPKELLLNTSEVTVRFESGSHISGRGFLLTYASSDHPDLITCLERASHYLKTEYSKFCPAGCRDVAGDISGNMVDGYRDTSLLCKAAIHAGIIADELGGQISVLQRKGISRYEGILANGVLSRDGSLSDKRFLFTSNGCSRSLSFEPDGQIRASSSWQSVNESGDQVHWSPGQARLQDQGPSWASGDSSNNHKPREWLEIDLGEKKKITGIRTTGSTQSNFNFYVKSFVMNFKNNNSKWKTYKGIVNNEEKVFQGNSNFRDPVQNNFIPPIVARYVRVVPQTWHQRIALKVELIGCQITQGNDSLVWRKTSQSTSVSTKKEDETITRPIPSEETSTGINITTVAIPLVLLVVLVFAGMGIFAAFRKKKKKGSPYGSAEAQKTDCWKQIKYPFARHQSAEFTISYDNEKEMTQKLDLITSDMADYQQPLMIGTGTVTRKGSTFRPMDTDAEEAGVSTDAGGHYDCPQRAGRHEYALPLAPPEPEYATPIVERHVLRAHTFSAQSGYRVPGPQPGHKHSLSSGGFSPVAGVGAQDGDYQRPHSAQPADRGYDRPKAVSALATESGHPDSQKPPTHPGTSDSYSAPRDCLTPLNQTAMTALL
For B1, the binding was “binds”.
